Measurements reported in PubChem BioAssay AID1259405 (NCATS, 2018)
Shown is an unselected part of about 50,000 reagents tested. Over the whole deposit, about 4,000 (8%) were called active. 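Mouse siRNA library applied to hamster cells; one well for each siRNA.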 Unmarked entries are inactive. The numbers tell different reagents against one gene apart. No sequences are given here.

- Purpose: 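Silenced genes that increase secreted GFP made by CHO cells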 (primary screen)
- Cells: Chinese hamster CHO-K1 ovary cells with stable secreted eGFP expression
- Reagents: single siRNA against mouse genes, 0.8 pmol siRNA per well (2 µl of 400 nM stock)
- Timing: 3 days
- Read-out: 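Per-well intracellular GFP measured by laser scanning cytometry, plus viability from ATP luminescence, each relative to plate median of non-targeting control wells, in %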
- Scale: GFP, % of control: higher = more GFP per well, higher productivity; viability (ATP), % of control: higher = more viable cells (more ATP)
- Hit rule: 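Called active when intracellular GFP, relative to negative control, is at or above 120%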

Which result is listed for Lrif1 #1?
GFP, % of control: 104; viability (ATP), % of control: 108

What did the screen give for Lrif1 #2?
GFP, % of control: 71.6; viability (ATP), % of control: 101

With Lrif1 #3, what does the deposit list?
GFP, % of control: 129 (active); viability (ATP), % of control: 147

What is on record for Map3k8?
GFP, % of control: 66.8; viability (ATP), % of control: 74.4

How did the screen score Ttr #1?
GFP, % of control: 163 (active); viability (ATP), % of control: 38.4

What did the screen give for Ttr #2?
GFP, % of control: 57.8; viability (ATP), % of control: 44.1

What did the screen give for Ttr #3?
GFP, % of control: 73.9; viability (ATP), % of control: 123

For Hspb7 #1, what does the deposit list?
GFP, % of control: 52.5; viability (ATP), % of control: 58.7

With Hspb7 #2, what does the deposit list?
GFP, % of control: 76.4; viability (ATP), % of control: 76.3

Which result is listed for Hspb7 #3?
GFP, % of control: 94.2; viability (ATP), % of control: 106

With Cyp3a13 #1, what does the deposit list?
GFP, % of control: 63.9; viability (ATP), % of control: 60.1

What is on record for Cyp3a13 #2?
GFP, % of control: 29.8; viability (ATP), % of control: 38

Which result is listed for Cyp3a13 #3?
GFP, % of control: 46.8; viability (ATP), % of control: 48

What did the screen give for Nedd8 #1?
GFP, % of control: 65.2; viability (ATP), % of control: 82.7

For Nedd8 #2, what was measured?
GFP, % of control: 95.6; viability (ATP), % of control: 43.6

With Nedd8 #3, what was measured?
GFP, % of control: 123 (active); viability (ATP), % of control: 81.3

What did the screen give for Caprin1 #1?
GFP, % of control: 92.2; viability (ATP), % of control: 85.7

What did the screen give for Caprin1 #2?
GFP, % of control: 67.9; viability (ATP), % of control: 75.8

For Caprin1 #3, what does the deposit list?
GFP, % of control: 80.4; viability (ATP), % of control: 96.9

How did the screen score Dnajc14 #1?
GFP, % of control: 108; viability (ATP), % of control: 60.2

For Dnajc14 #2, what was measured?
GFP, % of control: 54.5; viability (ATP), % of control: 52.5

For Dnajc14 #3, how do the results read?
GFP, % of control: 16.8; viability (ATP), % of control: 33.1

How did the screen score Eml4 #1?
GFP, % of control: 100; viability (ATP), % of control: 90.1

For Eml4 #2, how do the results read?
GFP, % of control: 98.8; viability (ATP), % of control: 76.8

For Defb41 #1, how do the results read?
GFP, % of control: 93.2; viability (ATP), % of control: 114

What did the screen give for Defb41 #2?
GFP, % of control: 87.8; viability (ATP), % of control: 70

With Defb41 #3, what was measured?
GFP, % of control: 63; viability (ATP), % of control: 89.3

With Myct1 #1, what does the deposit list?
GFP, % of control: 92.2; viability (ATP), % of control: 91

How did the screen score Myct1 #2?
GFP, % of control: 63; viability (ATP), % of control: 83.4

With Myct1 #3, how do the results read?
GFP, % of control: 56.3; viability (ATP), % of control: 64.9

What did the screen give for Sgsm1 #1?
GFP, % of control: 102; viability (ATP), % of control: 79.8

For Sgsm1 #2, what does the deposit list?
GFP, % of control: 73.3; viability (ATP), % of control: 82.7

With Sgsm1 #3, what was measured?
GFP, % of control: 24.8; viability (ATP), % of control: 21.5

What is on record for Zfp560 #1?
GFP, % of control: 109; viability (ATP), % of control: 67

For Zfp560 #2, what does the deposit list?
GFP, % of control: 88.9; viability (ATP), % of control: 93.8

Which result is listed for Zfp560 #3?
GFP, % of control: 78.5; viability (ATP), % of control: 84.6

What did the screen give for Kdm6b #1?
GFP, % of control: 72.3; viability (ATP), % of control: 55.1

Which result is listed for Kdm6b #2?
GFP, % of control: 84.1; viability (ATP), % of control: 71.6

What is on record for Kdm6b #3?
GFP, % of control: 78.6; viability (ATP), % of control: 77.2

How did the screen score D630003M21Rik #1?
GFP, % of control: 61.6; viability (ATP), % of control: 50.5

For D630003M21Rik #2, what does the deposit list?
GFP, % of control: 149 (active); viability (ATP), % of control: 104

Which result is listed for D630003M21Rik #3?
GFP, % of control: 98.5; viability (ATP), % of control: 89.5

6 entries from above, reduced to “GFP, % of control”.
Dnajc14 #1	108
Dnajc14 #2	54.5
Dnajc14 #3	16.8
Eml4 #1	100
Eml4 #2	98.8
Defb41 #1	93.2
